Assay results: publication PMC4560817
Results are given in words; binding and its absence hold for the method and conditions named. Binding seen in cells or lysates may run through a third protein. Some entries that bind do so weakly or less than the wild type. Blank lines part the entries; values can stand above or below the substance they belong to.

Chains of the proteins cited; added tags and fusions are not shown.
UniProt P35222: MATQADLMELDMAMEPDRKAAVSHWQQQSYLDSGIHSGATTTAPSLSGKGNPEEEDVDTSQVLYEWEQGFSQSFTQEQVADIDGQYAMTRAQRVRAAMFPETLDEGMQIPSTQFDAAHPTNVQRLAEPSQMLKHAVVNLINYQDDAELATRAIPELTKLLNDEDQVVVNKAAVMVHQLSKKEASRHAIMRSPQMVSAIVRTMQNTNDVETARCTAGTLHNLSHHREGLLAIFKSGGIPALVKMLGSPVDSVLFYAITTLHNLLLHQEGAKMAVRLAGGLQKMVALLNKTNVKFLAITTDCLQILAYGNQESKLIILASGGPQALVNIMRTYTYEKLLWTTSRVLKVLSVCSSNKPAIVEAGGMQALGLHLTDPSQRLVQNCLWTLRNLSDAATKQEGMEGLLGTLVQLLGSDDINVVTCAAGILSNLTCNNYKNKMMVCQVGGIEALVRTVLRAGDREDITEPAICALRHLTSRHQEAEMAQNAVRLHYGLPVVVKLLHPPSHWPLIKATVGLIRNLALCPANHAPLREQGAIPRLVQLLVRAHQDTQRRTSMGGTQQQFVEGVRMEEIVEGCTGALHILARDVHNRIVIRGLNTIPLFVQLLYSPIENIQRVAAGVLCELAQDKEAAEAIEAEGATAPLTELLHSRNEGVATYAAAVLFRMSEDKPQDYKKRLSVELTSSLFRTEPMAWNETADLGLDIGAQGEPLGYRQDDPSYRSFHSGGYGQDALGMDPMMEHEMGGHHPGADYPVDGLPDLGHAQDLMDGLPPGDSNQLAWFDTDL
UniProt Q02248: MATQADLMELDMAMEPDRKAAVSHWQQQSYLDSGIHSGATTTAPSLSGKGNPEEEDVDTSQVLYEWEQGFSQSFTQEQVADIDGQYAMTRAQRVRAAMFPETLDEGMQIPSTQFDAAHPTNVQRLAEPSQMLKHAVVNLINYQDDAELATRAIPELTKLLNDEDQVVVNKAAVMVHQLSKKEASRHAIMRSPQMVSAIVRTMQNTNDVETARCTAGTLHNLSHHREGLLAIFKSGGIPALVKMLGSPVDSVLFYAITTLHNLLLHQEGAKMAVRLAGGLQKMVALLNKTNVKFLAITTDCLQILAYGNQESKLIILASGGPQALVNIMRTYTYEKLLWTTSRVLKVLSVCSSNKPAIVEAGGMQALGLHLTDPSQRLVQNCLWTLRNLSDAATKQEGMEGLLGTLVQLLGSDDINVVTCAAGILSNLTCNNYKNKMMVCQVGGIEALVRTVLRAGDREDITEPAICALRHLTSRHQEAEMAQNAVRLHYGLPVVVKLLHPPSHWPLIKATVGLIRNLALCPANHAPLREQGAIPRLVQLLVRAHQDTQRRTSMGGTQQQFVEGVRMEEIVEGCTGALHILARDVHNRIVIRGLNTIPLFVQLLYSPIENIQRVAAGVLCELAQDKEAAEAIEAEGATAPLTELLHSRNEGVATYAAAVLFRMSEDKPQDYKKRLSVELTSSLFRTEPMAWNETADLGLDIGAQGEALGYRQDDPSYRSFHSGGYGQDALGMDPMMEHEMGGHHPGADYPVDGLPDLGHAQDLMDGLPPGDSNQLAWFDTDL

Legend:
[1] = biological target: T1, caveolin-1 (CAV1), mouse (mouse (endogenous in melanoma tumours)) (UniProt P49817); test: co-IP; lysates of NRAS and NRAS-ΔPTEN mouse tumours, 400 μg total protein; IP with anti-CAV1 antibody; western blot with anti-β-catenin and anti-CAV1
T1 sequence: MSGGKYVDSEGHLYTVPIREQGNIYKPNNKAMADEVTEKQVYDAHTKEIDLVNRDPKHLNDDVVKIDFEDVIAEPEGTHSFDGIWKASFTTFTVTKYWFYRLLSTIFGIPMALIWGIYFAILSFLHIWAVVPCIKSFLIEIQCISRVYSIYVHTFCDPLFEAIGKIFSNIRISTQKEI

[2] = biological target: caveolin-1 (CAV1) (human (endogenous in Rosi, HCT116, WM852, WM793, Hs944T)) (UniProt Q03135); test: co-IP; endogenous proteins; extracts of Rosi and HCT116 cells (also WM852 and WM793, IP with CAV1) in 10 mM Tris pH 8, 150 mM NaCl, 1% Triton X-100, 60 mM octyl β-D-glucopyranoside; IP with anti-β-catenin, anti-CAV1, anti-PTEN or control IgG, protein G sepharose, 4 °C overnight; western blot
[3] = biological target: caveolin-1 (CAV1) (human (endogenous in Rosi, HCT116, WM852, WM793, Hs944T)) (UniProt Q03135); test: co-IP; Hs944T cells transiently transfected with GFP or PTEN; CAV1-BCAT immunocomplex, western blot
[4] = biological target: glutathione S-transferase–β-catenin fusion protein (UniProt P35222); test: pull-down; 20 μl β-catenin–GST beads with 500 μg whole-cell lysate of Hs944T cells transfected with GFP or PTEN, in PBS with protease inhibitors, 3 h at 4 °C; washed with 10 mM Tris pH 8, 150 mM NaCl, 1% Triton X-100, octyl β-D-glucopyranoside; immunoblot; only the target purified
[5] = biological target: β-catenin (human (endogenous in Rosi, HCT116, Hs944T)) (UniProt P35222); test: co-IP; endogenous proteins; extracts of Rosi and HCT116 cells (also WM852 and WM793, IP with CAV1) in 10 mM Tris pH 8, 150 mM NaCl, 1% Triton X-100, 60 mM octyl β-D-glucopyranoside; IP with anti-β-catenin, anti-CAV1, anti-PTEN or control IgG, protein G sepharose, 4 °C overnight; western blot

- binding [1]: binds
Substance: β-catenin, mouse (from UniProt Q02248 1-781)

- binding [2]: binds
- binding [3]: binds
Substance: β-catenin (from UniProt P35222 1-781)

- binding [4]: binds
- binding [5]: binds
Substance: caveolin-1 (CAV1) (from UniProt Q03135 1-178)
